The other results are listed elsewhere or left out. Further columns of the screen follow, without active or inactive calls. The list favours compounds with an active or inconclusive main result. Potencies come from curve fits of mixed quality, noted in brackets.
Experiment: qHTS Assay for Lipid Storage Modulators in Drosophila S3 Cells;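 on cell number change: cells counted by Cell Tracker Red CMTPX staining in the red channel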
Details: BODIPY lipid droplet fluorescence, 18-24 h; for cell number change: measured here: cell count max response, cells fed with added oleic acid
How it was run: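 Drosophila S3 cells got compounds at several concentrations plus oleic acid (400 uM solution). Laser-scanning cytometry with 488 nm excitation read lipid droplets at 500-530 nm and cells at 575-640 nm. Percent activity was relative to 20 uM Triacsin C.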

[1] = measured here: lipid fluorescence (Fed channel) AC50, cells fed with added oleic acid
[2] = measured here: cell number channel AC50, cells fed with added oleic acid

Row | SMILES | cell number change | AC50 [1] | AC50 [2]
1 | COc1ccc(NC(=O)CN(C)C(=O)c2oc3ccccc3c2C)cc1 | 4.21% |  | 
2 | CCCCC1=CC2=C(c3ccco3)C(=O)C(C)(OC(=O)c3ccc(OC)cc3)C(=O)C2=CN1Cc1ccc(OC)cc1 (centres undefined) | -2.27% | 32.6 µM [falling, single point] | 
3 | CCN1CCN(Cc2nc3c(c(=O)n(C)c(=O)n3C)n2CC(=O)c2ccccc2)CC1 | 0.237% | 20.6 µM [falling, partial curve] | 
4 | O=C(Nc1sc2c(c1C(=O)O)CCCC2)c1ccc(F)cc1 | 18.6% |  | 
5 | Cc1nc(NN)nc(NCc2ccccc2)n1 | 22.1% | 0.58 µM [falling, single point] | 
6 | O=C(Oc1ccccc1F)c1ccc2c(=O)n3c(nc2c1)CCC3 | 22.5% |  | 
7 | CCOC(=O)N1CCN(CC(=O)Nc2nc3ccccc3s2)CC1 | 10.6% | 6.51 µM [falling, single point] | 
8 | O=S(=O)(NCC1CCCO1)c1cccc2nsnc12 (centres undefined) | 3.95% | 23.1 µM [falling, partial curve, poor fit] | 
9 | Cc1ccc(S(=O)(=O)N2CCCC2)cc1C(=O)N1CCN(Cc2ccccc2)CC1 | 3.97% |  | 
10 | Cc1ccc(Nc2nc3c(c(=O)[nH]c(=O)n3C)n2Cc2ccc(F)cc2)cc1 | -51.9% | 6.51 µM [falling, partial curve] | 7.31 µM [falling, partial curve]
11 | N#Cc1nc(-c2cccs2)oc1NCC1CCCO1 (centres undefined) | 51.3% | 18.4 µM [falling, partial curve] | 
12 | O=C(CCl)Nc1cc2[nH]c(=O)[nH]c2cc1Br | -1.49% |  | 
13 | COc1ccc(OCCCC(=O)OC(C)C(=O)Nc2ccc(S(N)(=O)=O)cc2)cc1 (centres undefined) | -20.2% | 18.4 µM [falling, single point] | 
14 | NC1=NC2(CCCC2)N=C(Nc2ccccc2)N1 | 11.9% | 16.4 µM [rising, partial curve] | 
15 | O=[N+]([O-])/C(C(Cl)=C(Cl)Cl)=C(\Sc1ccccc1)N1CCCCC1 | -7.57% | 3.66 µM [falling, partial curve, poor fit] | 
16 | O=C(CCc1nc2ccccc2c(=O)[nH]1)N1CCN(S(=O)(=O)c2cccc(F)c2)CC1 | -13.8% | 6.51 µM [falling, single point] | 
17 | COCCCn1cnnc1SCC(=O)Nc1ccc(S(=O)(=O)N2CCCC2)cc1 | 1.39% |  | 
18 | Cc1c(OCC(=O)N[C@@H](Cc2c[nH]c3ccccc23)C(=O)O)ccc2c1oc(=O)c1ccccc12 | -14.6% | 0.092 µM [falling, full curve, poor fit] | 
19 | CCOc1ccc(OCC)c(NC(=O)C(NS(=O)(=O)c2ccc3c(c2)oc(=O)n3C)C(C)C)c1 (centres undefined) | 30.7% |  | 5.8 µM [rising, partial curve]
20 | Cc1ccccc1OC(C)C(=O)Nc1ccc(S(=O)(=O)Nc2nccs2)cc1 (centres undefined) | 1.26% | 0.00517 µM [rising, full curve, poor fit] | 
21 | CC(=O)N1CCCC(C(=O)c2ccc(Oc3ccccc3)cc2)C1 (centres undefined) | -28.6% | 20.6 µM [falling, single point] | 

Excerpt, compounds 17–19
Row | SMILES | cell number change | AC50 [1] | AC50 [2]
17 | COCCCn1cnnc1SCC(=O)Nc1ccc(S(=O)(=O)N2CCCC2)cc1 | 1.39% |  | 
18 | Cc1c(OCC(=O)N[C@@H](Cc2c[nH]c3ccccc23)C(=O)O)ccc2c1oc(=O)c1ccccc12 | -14.6% | 0.092 µM [falling, full curve, poor fit] | 
19 | CCOc1ccc(OCC)c(NC(=O)C(NS(=O)(=O)c2ccc3c(c2)oc(=O)n3C)C(C)C)c1 (centres undefined) | 30.7% |  | 5.8 µM [rising, partial curve]

(further entries)

Row | SMILES | cell number change | AC50 [1] | AC50 [2]
22 | C=CCn1c(C)cc(C(=O)CSc2ccc(NC(C)=O)cc2)c1C | -22.5% | 18.4 µM [falling, single point] | 
23 | CCn1c(=O)n(CCc2ccccc2)c(=O)c2c3c(sc21)CCCC3 | 90.9% | 2.91 µM [rising, full curve] | 2.59 µM [rising, full curve]
24 | CCC(=O)NC(=S)Nc1cccc(NC(=O)c2ccccc2C)c1 | 20.6% | 4.11 µM [rising, single point] | 
25 | Clc1cccc(Cl)c1Cn1ccc(C2CC2)n1 | -0.652% | 4.61 µM [rising, single point] | 
26 | CC(C)(C)NC(=O)CN(C(=O)CCN1CCCc2ccccc21)C(C)(C)C |  | 25.9 µM [falling, partial curve] | 
27 | Cc1cc(C(=O)C(C)OC(=O)c2ccc(NC(=O)CC#N)cc2)c(C)n1-c1ccc(OC(F)F)cc1 (centres undefined) | -3.89% | 16.4 µM [falling, partial curve] | 
28 | Cc1ccc(CNC(=O)CN(C)S(=O)(=O)c2ccc3c(c2)n(C)c(=O)c(=O)n3C)cc1 | 24.5% | 29.1 µM [rising, single point] | 
29 | O=C(CN(C(=O)CSc1nnc(COc2ccccc2)o1)c1ccc(F)cc1)NC1CCCCC1 |  | 6.51 µM [rising, single point] | 4.11 µM [rising, single point]
30 | CCN1CCN(C(c2cccs2)C(C)NC(=O)C(=O)N2CCCCC2)CC1 (centres undefined) | 20.3% | 29.1 µM [rising, partial curve] | 
31 | Clc1cccc(Cl)c1CSc1nnc(/C=C/c2ccccc2)o1 | 154% |  | 0.058 µM [falling, full curve, poor fit]
32 | Cc1ccc(OCC(=O)Nc2ccc(S(=O)(=O)Nc3ccccn3)cc2)cc1C | 87.7% |  | 
33 | Fc1cccc2sc(N3CCCCC3)nc12 |  | 0.651 µM [falling, single point] | 
34 | O=C(NNC(=O)c1c(F)cccc1F)c1sccc1-n1cccc1 | -22.7% |  | 
35 | CCc1ccc(C2C(C#N)=C(N)C(C#N)(C#N)C3=CCC(C(C)(C)C)CC32)cc1 (centres undefined) | -77.7% | 20.6 µM [falling, partial curve] | 18.4 µM [falling, partial curve]
36 | CCOC(=O)c1[nH]c(C)c(C(=O)OCC(=O)NCc2ccc(OC)c(OC)c2)c1C | -41.3% | 0.411 µM [falling, full curve] | 16.4 µM [falling, partial curve]
37 | Cc1cccc(C(=O)NNC(=O)c2n[nH]c(=O)c3ccccc23)c1C | 43% | 2.91 µM [falling, single point] | 
38 | O=C(COC(=O)c1ccc(NS(=O)(=O)c2ccc3c(c2)OCCO3)cc1)NC1CC1 | 8.34% | 25.9 µM [falling, single point] | 
39 | CC(/C=N/NC(=O)c1ccc(Br)cc1)=C\c1ccccc1 | -31.1% | 23.1 µM [falling, single point] | 18.4 µM [falling, single point]
40 | O=C(CCCN1C(=O)c2ccccc2C1=O)NCCc1ccc(OC(F)F)cc1 | -7.66% | 0.58 µM [rising, single point] | 
41 | Cc1cc(C)cc(NC(=S)NCc2cccs2)c1 | -22.9% | 29.1 µM [falling, single point] | 
42 | O=C(Cc1ccc(F)cc1)N1CCOCC1 | 12.5% | 29.1 µM [rising, single point] | 

Row | SMILES | cell number change | AC50 [1] | AC50 [2]
43 | Cc1nc(SCC(=O)CC(=O)OC(C)C)c(C#N)c(C)c1C | 117% |  | 18.4 µM [rising, single point]
44 | O=C(NNC1=NS(=O)(=O)c2ccccc21)c1ccc(Cl)cc1 | 2.28% |  | 
45 | Oc1ccc(/C=N/N2CCN(C3c4ccccc4-c4ccccc43)CC2)c(O)c1 | 20.7% | 29.1 µM [falling, partial curve] | 
46 | COc1cccc2c(=O)cc(C)n(CC(=O)Nc3ccc(Br)cc3)c12 | 13.7% | 0.651 µM [rising, full curve, poor fit] | 
47 | C=CCSc1nc2c(c(=O)[nH]1)C(C(C)C)C(C#N)=C(N)O2 (centres undefined) | -11.2% | 0.82 µM [falling, full curve] | 0.82 µM [falling, full curve]
48 | O=C(Cc1cccc(F)c1)Nc1ccc2c(c1)CCC2 | 2.7% |  | 
49 | COc1cc(C)c(CN2CCCCC2CO)cc1C (centres undefined) | 0.527% | 0.13 µM [rising, full curve, poor fit] | 
50 | CCn1nc(C(=O)OCc2c(C)noc2C)c2ccccc2c1=O | 44% | 5.17 µM [rising, partial curve] | 0.461 µM [rising, full curve]
51 | O=C1CCCN1CC(O)CS(=O)(=O)Cc1ccccc1Cl (centres undefined) | 9.33% | 6.51 µM [falling, single point] | 
52 | CCN(CC(=O)Nc1ccccc1-c1ccccc1)Cc1nc2ccccc2c(=O)[nH]1 | 5.89% | 1.03 µM [rising, single point] | 
53 | Cc1ccc(NC(=O)COc2cccc(Oc3ccccc3)c2)cc1S(=O)(=O)N1CCOCC1 | -21.7% |  | 0.00461 µM [falling, full curve, poor fit]
54 | CCOc1ncccc1C(=O)NCc1ccc(C)cc1 | -6.09% | 0.092 µM [rising, full curve, poor fit] | 
55 | CC(=O)N1CCCc2cc(S(=O)(=O)N3CCC(C)CC3)ccc21 | -13.9% | 3.26 µM [falling, single point] | 
56 | O=C(CCS(=O)(=O)c1ccc(Br)cc1)NCc1cccs1 | -6.49% | 16.4 µM [falling, single point] | 
57 | CCOC(=O)c1c(NC(=O)CSc2ncccn2)sc2c1CCN(Cc1ccccc1)C2 | -50.6% | 1.16 µM [rising, partial curve] | 16.4 µM [falling, partial curve]
58 | CCOc1ccc(-c2cc(C(=O)NN=C3CCN(C)CC3)[nH]n2)cc1 | -23.1% |  | 
59 | O=C(N/N=C/c1cccs1)c1cnccn1 |  | 3.26 µM [falling, single point] | 
60 | O=C(COc1cc(Cl)c(Cl)cc1Cl)N1CCN(c2ccccn2)CC1 | 9.94% | 18.4 µM [rising, single point] | 
61 | COc1cc(-c2cccs2)cc(=O)c2c(C)oc(C)c12 | -33.3% | 18.4 µM [falling, partial curve, poor fit] | 8.2 µM [falling, partial curve]
62 | CCOC(=O)c1c(C)[nH]c(C)c1C(=O)CSc1nnc(-c2ccc(OC(F)F)cc2)o1 |  | 0.259 µM [rising, partial curve, poor fit] | 0.291 µM [rising, partial curve, poor fit]

Reference: PubChem BioAssay AID2685 (National Center for Advancing Translational Sciences (NCATS), 2010)
